No constants are given. Whether binding was seen depends on the method and setting. In cells and extracts the contact can be indirect. Some entries that bind do so weakly or less than the wild type.
Target: TAR DNA-binding protein 43 (mouse (endogenous in adult mouse brain and primary mouse cortical neurons)) (UniProt Q921F2)
Test: co-IP

Amino acid sequences for entries named in this document (tags omitted).
UniProt Q921F2: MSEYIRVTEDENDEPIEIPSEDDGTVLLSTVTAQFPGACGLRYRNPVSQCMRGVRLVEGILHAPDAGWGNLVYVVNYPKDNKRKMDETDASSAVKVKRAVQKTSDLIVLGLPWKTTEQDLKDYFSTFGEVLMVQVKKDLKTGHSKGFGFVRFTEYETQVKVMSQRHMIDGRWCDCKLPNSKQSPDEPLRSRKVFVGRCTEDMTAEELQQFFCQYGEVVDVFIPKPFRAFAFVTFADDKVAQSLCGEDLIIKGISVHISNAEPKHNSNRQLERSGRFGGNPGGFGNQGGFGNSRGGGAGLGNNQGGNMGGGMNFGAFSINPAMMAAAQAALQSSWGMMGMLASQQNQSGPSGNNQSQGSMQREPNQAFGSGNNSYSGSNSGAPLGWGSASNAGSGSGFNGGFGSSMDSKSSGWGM

binding: binds
B1: STAU2 (protein, UniProt Q8CJ67 1-570)
chain: MANPKEKTPVCLVNELARFHSIQPQYKLLNESGPAHSKMFSVQLSLGEQTWESEGSSIKKAQQAVANKALTESTLPKPVQKPPKSNVNNNPGSITPTVELNGLAMKRGEPAIYRPLDPKPFPNYRANYNFRGMYNQRYHCPMPKIFYVQLTVGNNEFFGEGKTRQAARHNAAMKALQALQNEPIPEKSPQNGESGKEMDDDKDANKSEISLVFEIALKRNMPVSFEVIKESGPPHMKSFVTRVSVGEFSAEGEGNSKKLSKKRAATTVLQELKKLPPLPVVEKPKLFFKKRPKTIVKAGPDYGQGMNPISRLAQIQQARKEKEPDYILLSERGMPRRREFVMQVKVGNEVATGTGPNKKIAKKNAAEAMLLQLGYKASTSLQDPLDKTGENKGWSGPKPGFPEPTNNTPKGILHLSPDVYQEMEASRHRVTSGTTLSYLSPKDMNQPSSSFFSVSPSSTSSATVARELLMNGTSPTAEAIGLKGSSPTSPCSSVQPSKQLEYLARIQGFQAALSALKQFSEQGLESIDGAVNVEKGSLEKQAKHLREKADNNQAKPASISQDCKKSKSAI

— article doi:10.1101/589416
